Values of other authors, collected in patent US9730952B2, “Methods for treating and preventing mucositis” (Indena S.p.A., priority 2006, dated 2017).
For at least one compound, name, drawing or mass did not settle the structure.

Test system: PGE2
Details: volunteers, administration of cyanidin

Oc1cc(O)c2cc(O)c(-c3ccc(O)c(O)c3)[o+]c2c1 [cyanidin]
secretion of PGE2 compared with the controls: significantly increased
